The values below come from patent publication US4695576A, “L-N-n-propylpipecolic acid-2,6-xylidide” (priority 1985, dated 1987).

Where two headings read alike, the source gives them in different places.

The conditions of data set [1]: background statement, cited from earlier work.
Data set [2] is described as follows: Force of contraction of guinea pig papillary muscle. The conditions noted are these: read-out: Reduction of Force of Contraction at 1 Hz. Type of data set: cell-based. The method, then: In order to initiate an investigation without the necessity to involve voltage-clamp of the calcium current, the preparations were subject to long depolarizing induced automaticity. If the cells are depolarized from about -50 to about -30 mV the automaticity is dependent on a transmembrane calcium current.
Guinea pig papillary tests were carried out according to the recommendation of the "Report of the Subcommittee on Cardiotoxicity of Local Anesthetics" (Leroy D. Vandam, M.D., chairman). […] Solutions maintained at 37° C.±0.5° continuously perfused the gap compartments. The rear chamber contained isotonic potassium chloride solution. The drugs were added to a Tris-Tyrode solution passing the tip of the muscle. […] It was adjusted to pH 7.4 with trismaleate and HCl before use and gassed with 100% oxygen. Isotonic sucrose solution isolated the rear from the tip to enable current- and voltage-clamping.
The force of contraction was measured with a strain gauge transducer before and after the addition of the test compounds to the medium. The percent reduction in maximum force of contraction from the control was calculated.

Take `CCN(CC)CC(=O)Nc1c(C)cccc1C` [Lidocaine, 2-diethylamino-2',6'-acetoxylidide]: the cardiotoxicity result is “no cardiotoxicity” in data set [1] and “much lower cardiotoxicity” in data set [1] (listed as lidocaine). Further, the inhibition at 5 µM in data set [2] (5 × 10^-6 M) is 9.4%. In data set [2] (10^-5 M), the inhibition at 10 µM was determined as 0%.
